Experimental data as given in article PMC3750179.

Amino acid sequences for entries named in this document (tags omitted). A change or cut given only in a name is not applied to a line headed by its entry.
UniProt Q9Z0U4: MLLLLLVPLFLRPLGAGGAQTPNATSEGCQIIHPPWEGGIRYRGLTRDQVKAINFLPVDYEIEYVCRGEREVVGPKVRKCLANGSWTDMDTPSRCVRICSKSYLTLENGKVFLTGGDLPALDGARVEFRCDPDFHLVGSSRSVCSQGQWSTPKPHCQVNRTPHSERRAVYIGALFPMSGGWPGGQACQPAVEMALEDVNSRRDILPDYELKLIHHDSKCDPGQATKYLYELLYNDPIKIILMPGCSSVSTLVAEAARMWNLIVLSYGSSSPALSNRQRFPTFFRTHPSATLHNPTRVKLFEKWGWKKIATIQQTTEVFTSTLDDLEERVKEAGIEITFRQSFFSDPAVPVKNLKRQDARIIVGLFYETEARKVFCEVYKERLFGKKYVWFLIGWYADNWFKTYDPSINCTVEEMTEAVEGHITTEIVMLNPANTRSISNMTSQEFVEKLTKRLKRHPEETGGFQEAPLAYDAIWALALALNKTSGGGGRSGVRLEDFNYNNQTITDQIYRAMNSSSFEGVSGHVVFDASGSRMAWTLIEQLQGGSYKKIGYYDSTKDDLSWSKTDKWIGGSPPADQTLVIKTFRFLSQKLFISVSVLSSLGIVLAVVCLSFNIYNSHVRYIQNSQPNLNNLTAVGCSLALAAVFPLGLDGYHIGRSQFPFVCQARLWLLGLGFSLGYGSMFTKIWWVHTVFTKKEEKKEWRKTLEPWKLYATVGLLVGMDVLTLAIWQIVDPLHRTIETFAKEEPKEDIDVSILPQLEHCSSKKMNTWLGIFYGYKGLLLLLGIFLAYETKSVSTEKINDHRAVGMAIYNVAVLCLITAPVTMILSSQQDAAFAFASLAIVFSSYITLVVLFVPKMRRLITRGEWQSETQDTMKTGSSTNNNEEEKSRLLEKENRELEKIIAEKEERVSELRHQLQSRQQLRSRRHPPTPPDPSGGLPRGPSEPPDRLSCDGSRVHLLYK
UniProt Q6WVG3: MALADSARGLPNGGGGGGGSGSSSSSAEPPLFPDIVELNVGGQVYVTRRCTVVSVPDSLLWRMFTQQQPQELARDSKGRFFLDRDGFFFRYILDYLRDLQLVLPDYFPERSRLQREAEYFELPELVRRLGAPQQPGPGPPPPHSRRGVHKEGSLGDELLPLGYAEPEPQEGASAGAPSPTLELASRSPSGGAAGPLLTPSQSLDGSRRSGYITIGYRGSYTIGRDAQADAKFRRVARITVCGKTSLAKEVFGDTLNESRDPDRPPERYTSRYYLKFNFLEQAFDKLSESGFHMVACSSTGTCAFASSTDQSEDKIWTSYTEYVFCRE

Columns and labels:
Myc-GABAB1 = Myc-GABAB1 (UniProt Q9Z0U4); test: pull-down; surface biotinylation of transfected COS-1 cells, 120 min at 37 °C to allow internalization, surface biotin removed with glutathione, biotinylated proteins purified with NeutrAvidin-Sepharose, Western blot; the text calls it co-immunoprecipitation
HA-GABAB1-YFP = HA-GABAB1-YFP (UniProt Q9Z0U4); test: FRET or BRET; BRET donor saturation curves in intact COS-1 cells: fixed Rluc fusion (donor) and fixed GABAB2, increasing GABAB1-YFP (acceptor); coelenterazine h 5 μM; PBS or 100 μM baclofen for 15 min; fit with a single binding site

- binding (Myc-GABAB1): binds
Molecule: FLAG-KCTD12 (from UniProt Q6WVG3 1-327)

- binding (HA-GABAB1-YFP): no binding
B1: Rluc-KCTD10 (protein, UniProt Q922M3 1-315)
chain: MEEMSGDSVVSSAVPAAATRTTSFKGASPSSKYVKLNVGGALYYTTMQTLTKQDTMLKAMFSGRMEVLTDSEGWILIDRCGKHFGTILNYLRDGGVPLPESRREIEELLAEAKYYLVQGLLEECQAALQNKDTYEPFCKVPVITSSKEEQRLIATSNKPAVKLLYNRSNNKYSYTSNSDDNMLKNIELFDKLSLRFNGRVLFIKDVIGDEICCWSFYGQGRKIAEVCCTSIVYATEKKQTKVEFPEARIYEETLNILLYEAQDGRGPDNALLEATGGAAGRSHHLDEDEERERERIERVRRIHIKRPDDRAHLHQ

No constants are given. Whether binding was seen depends on the method and setting. In cells and extracts the contact can be indirect. For some assays here: Binding can be weak; no strength is given. For some assays here: Tags and fused reporters may be left off the sequences shown. One block for each molecule: values may come before it.
